From PubChem BioAssay AID282 (DTP/NCI, 2004)
The list shows only some results of the screen, not a fair sample: it gathers tests that were run many times, whatever their T/C, doses with no T/C, and many T/C values between a quarter and a half above the control. Further doses and runs are listed elsewhere. T/C: endpoint of the treated group in % of that of the vehicle group. Some entries give survivors of the animals treated and no T/C: the source holds a T/C of zero for them, seemingly a mark for toxic or unscored doses. Some survivor counts are full or nearly so, which does not show that the dose was tolerated: survival well below the control is almost never listed, so the zero probably covers shortened survival too. Survivors were counted at the toxicity check, usually on the fifth day, unless a day is given; later deaths do not show. Schedules are NCI's codes, taken here to give the interval after Q, in days (D) or hours (H), and the number of doses after X. Some doses were run more than once; the values are given in rising order. Some schedules carry Z or #; the key to these is not given. For survival time, the PubChem record calls one and a half times the control and up active, and a quarter to a half above the control has no call in these data; cut-offs in other NCI protocols can differ. Counts like (3×) give the number of equal values in this list. Some T/C values carry the count of animals alive at the toxicity check (mostly the fifth day); where none is given, no animal had died by that day.

System: BDF1 mice, L1210 terephthalanilide-resistant leukemia ip, survival T/C
Assay: NCI In Vivo Anticancer Drug Screen. Data for tumor model L1210 Leukemia resistant to A Terephthalanilide; NSC 38280 (intraperitoneal) in B6D2F1 (BDF1) mice
Conditions: T/C endpoint: mean survival time, higher T/C = longer survival
Experimental: The antitumor activity of compounds was measured in mice bearing transplantable tumors. Survival or tumor size were measured and the results are expressed as the measurement made in the treated group (T) divided by the measurement made in the vehicle treated control group (C). The tumor model used in this assay is L1210 Leukemia resistant to A Terephthalanilide; NSC 38280 (intraperitoneal) in B6D2F1 (BDF1) mice

[1] = dose: 300.0 mg/kg/injection, schedule: Q01DX Z (ip), vehicle: water
[2] = dose: 250.0 mg/kg/injection, schedule: Q01DX Z (ip), vehicle: carboxymethylcellulose (CMC)
[3] = dose: 25.0 mg/kg/injection, schedule: Q01DX010 (ip), vehicle: saline
[4] = dose: 50.0 mg/kg/injection, schedule: Q01DX010 (ip), vehicle: saline

Nc1nc2n[nH]nc2c(=O)[nH]1
T/C (dose: 25.0 mg/kg/injection, schedule: Q01DX010 (ip), vehicle: alkali diluted with saline): 127 and 133 % of control
T/C (dose: 25.0 mg/kg/injection, schedule: Q01DX Z (ip), vehicle: water): 131 % of control
T/C (dose: 50.0 mg/kg/injection, schedule: Q01DX010 (ip), vehicle: alkali diluted with saline): 136 % of control (2×)
T/C (dose: 50.0 mg/kg/injection, schedule: Q01DX Z (ip), vehicle: water): 137 % of control
T/C (dose: 100.0 mg/kg/injection, schedule: Q01DX010 (ip), vehicle: alkali diluted with saline): 143 and 144 % of control
T/C (dose: 100.0 mg/kg/injection, schedule: Q01DX Z (ip), vehicle: water): 137 % of control
T/C (dose: 200.0 mg/kg/injection, schedule: Q01DX010 (ip), vehicle: alkali diluted with saline): 141 and 144 % of control
T/C (dose: 200.0 mg/kg/injection, schedule: Q01DX Z (ip), vehicle: water): 129 % of control
T/C [1]: 130 % of control
survivor count [1]: 5 of 6
survivor count (dose: 400.0 mg/kg/injection, schedule: Q01DX Z (ip), vehicle: water): 3 of 6
survivor count (dose: 600.0 mg/kg/injection, schedule: Q01DX Z (ip), vehicle: water): 0 of 6
survivor count (dose: 750.0 mg/kg/injection, schedule: Q01DX Z (ip), vehicle: water): 0 of 6

O=P1(N(CCCl)CCCl)NCCCO1 (stereo not drawn)
T/C (dose: 11.3 mg/kg/injection, schedule: Q01DX010 (ip), vehicle: saline): 104, 113, 117, 129 % of control
T/C (dose: 20.0 mg/kg/injection, schedule: Q01DX Z (ip), vehicle: saline): 138 % of control
T/C (dose: 22.5 mg/kg/injection, schedule: Q01DX010 (ip), vehicle: saline): 130, 134, 138, 156 % of control
T/C (dose: 45.0 mg/kg/injection, schedule: Q01DX010 (ip), vehicle: saline): 158, 175, 177 % of control (2×)
T/C (dose: 90.0 mg/kg/injection, schedule: Q01DX010 (ip), vehicle: saline): 106, 115, 148, 169 % of control
T/C (dose: 100.0 mg/kg/injection, schedule: Q01DX Z (ip), vehicle: saline): 143 % of control
T/C (dose: 180.0 mg/kg/injection, schedule: Q01DX010 (ip), vehicle: saline): 92, 97 (2×), 103 % of control [5 of 6 alive]
survivor count (dose: 400.0 mg/kg/injection, schedule: Q01DX Z (ip), vehicle: saline): 1 of 6

CSc1ncnc2nc[nH]c12
survivor count [2]: 1 of 6

CCN(CC)c1ccc2cc3ccc(=[N+](CC)CC)cc-3oc2c1
survivor count (dose: 8.0 mg/kg/injection, schedule: Q01DX010 (ip), vehicle: saline): 4 of 6

CN(Cc1cnc2nc(N)nc(N)c2n1)c1ccc(C(=O)N[C@@H](CCC(=O)O)C(=O)O)cc1
T/C (dose: 0.19 mg/kg/injection, schedule: Q01DX010 (ip), vehicle: other): 123, 125 [5 of 6 alive], 126, 132 % of control
T/C (dose: 0.38 mg/kg/injection, schedule: Q01DX010 (ip), vehicle: other): 136, 152, 161, 166 % of control
T/C (dose: 0.75 mg/kg/injection, schedule: Q01DX010 (ip), vehicle: other): 150, 179, 182, 184 % of control
T/C (dose: 1.5 mg/kg/injection, schedule: Q01DX010 (ip), vehicle: other): 174, 186, 205, 220 % of control
T/C (dose: 3.0 mg/kg/injection, schedule: Q01DX010 (ip), vehicle: other): 95, 111, 121, 135 % of control

O=c1[nH]c(=O)n(C2CC(O)C(CO)O2)cc1I (stereo not drawn)
T/C (dose: 62.5 mg/kg/injection, schedule: Q01DX Z (ip), vehicle: carboxymethylcellulose (CMC)): 129 % of control
T/C (dose: 125.0 mg/kg/injection, schedule: Q01DX Z (ip), vehicle: carboxymethylcellulose (CMC)): 141 % of control
T/C [2]: 144 % of control

CC(=O)Nc1ccc2nc3ccc(NC(C)=O)cc3[n+](-c3ccccc3)c2c1
T/C (dose: 25.0 mg/kg/injection, schedule: Q01DX Z (ip), vehicle: carboxymethylcellulose (CMC)): 125 % of control
T/C (dose: 50.0 mg/kg/injection, schedule: Q01DX Z (ip), vehicle: carboxymethylcellulose (CMC)): 138 % of control
T/C (dose: 75.0 mg/kg/injection, schedule: Q01DX Z (ip), vehicle: carboxymethylcellulose (CMC)): 136 % of control
T/C (dose: 100.0 mg/kg/injection, schedule: Q01DX Z (ip), vehicle: carboxymethylcellulose (CMC)): 127 % of control
T/C (dose: 200.0 mg/kg/injection, schedule: Q01DX010 (ip), vehicle: saline): 130 % of control
survivor count (dose: 600.0 mg/kg/injection, schedule: Q01DX Z (ip), vehicle: carboxymethylcellulose (CMC)): 6 of 6

c1ccc(CCSc2ncnc3nc[nH]c23)cc1
survivor count (dose: 500.0 mg/kg/injection, schedule: Q01DX010 (ip), vehicle: saline): 6 of 6

O=C(Nc1ccc(C2=NCCN2)cc1)c1cccc(C(=O)Nc2ccc(C3=NCCN3)cc2)c1
T/C (dose: 64.0 mg/kg/injection, schedule: Q01DX010 (ip), vehicle: saline): 125 % of control

C[C@@H]1C[C@@H]([C@H](O)CC2CC(=O)NC(=O)C2)C(=O)[C@@H](C)C1
T/C (dose: 40.0 mg/kg/injection, schedule: Q01DX010 (ip), vehicle: saline): 130 % of control

CC1CCOS(=O)O1 (stereo not drawn)
survivor count (dose: 80.0 mg/kg/injection, schedule: Q01DX010 (ip), vehicle: saline): 6 of 6

O=NN(CCCl)C(=O)NCCCl
T/C (dose: 6.25 mg/kg/injection, schedule: Q01DX010 (ip), vehicle: saline): 134 % of control
T/C (dose: 12.5 mg/kg/injection, schedule: Q01DX010 (ip), vehicle: saline): 144 % of control
survivor count [3]: 6 of 6
survivor count [4]: 3 of 6 and 6 of 6

C[C@H](N)C(=O)N[C@@H]1[C@H]2C(=C(O)C[C@@H](O)[C@@H]2O)C(=O)O[C@@H]1C
T/C (dose: 187.0 mg/kg/injection, schedule: Q01DX Z (ip), vehicle: saline): 135 % of control

CS(=O)(=O)OCCC(=O)N1CCN(C(=O)CCOS(C)(=O)=O)CC1
T/C [3]: 131 % of control
T/C [4]: 138 % of control
survivor count (dose: 100.0 mg/kg/injection, schedule: Q01DX010 (ip), vehicle: saline): 5 of 6

C[N+](C)(C)c1ncnc2nc[nH]c12
survivor count (dose: 60.0 mg/kg/injection, schedule: Q01DX010 (ip), vehicle: saline): 6 of 6
T/C (dose: 75.0 mg/kg/injection, schedule: Q01DX Z (ip), vehicle: saline): 131 % of control [5 of 6 alive]
survivor count (dose: 120.0 mg/kg/injection, schedule: Q01DX010 (ip), vehicle: saline): 6 of 6
T/C (dose: 150.0 mg/kg/injection, schedule: Q01DX Z (ip), vehicle: saline): 130 % of control
survivor count (dose: 300.0 mg/kg/injection, schedule: Q01DX Z (ip), vehicle: saline): 0 of 6

S=P(N1CC1)(N1CC1)N1CC1
T/C (dose: 3.0 mg/kg/injection, schedule: Q01DX010 (ip), vehicle: saline): 133 % of control

Cn1cnc([N+](=O)[O-])c1Sc1nc(N)nc2nc[nH]c12
T/C (dose: 1.0 mg/kg/injection, schedule: Q01DX Z (ip), vehicle: carboxymethylcellulose (CMC)): 125 % of control
T/C (dose: 4.0 mg/kg/injection, schedule: Q01DX Z (ip), vehicle: carboxymethylcellulose (CMC)): 147 % of control
T/C (dose: 5.0 mg/kg/injection, schedule: Q01DX Z (ip), vehicle: carboxymethylcellulose (CMC)): 141 % of control
T/C (dose: 7.5 mg/kg/injection, schedule: Q01DX Z (ip), vehicle: carboxymethylcellulose (CMC)): 129 % of control

C1CN1c1nc(N2CC2)nc(N2CC2)n1
survivor count (dose: 1.0 mg/kg/injection, schedule: Q01DX010 (ip), vehicle: saline): 6 of 6

CC[n+]1ccccc1-c1ccc(NC(=O)c2ccc(C(=O)Nc3ccc(-c4ccccn4)cc3)cc2)cc1
T/C (dose: 5.0 mg/kg/injection, schedule: Q01DX010 (ip), vehicle: saline): 131 % of control

CN(C)c1nc(N(C)C)nc(N(C)C)n1
survivor count (dose: 350.0 mg/kg/injection, schedule: Q01DX Z (ip), vehicle: other): 5 of 6
survivor count (dose: 500.0 mg/kg/injection, schedule: Q01DX Z (ip), vehicle: other): 4 of 6
